Experimental data taken from US20240148745A1, “COMPOUNDS FOR USE IN PROGRESSIVE MULTIPLE SCLEROSIS” (FONDAZIONE CENTRO SAN RAFFAELE, priority 2021, published 2024).
At least one structure is not confirmed: it was looked up by name or label, or the drawing left a doubt.

Key:
[1] = test system: human iPS-derived neuroprecursors; assay: Differentiation of human iPS-derived neuroprecursors into MBP+ oligodendrocytes; type: cell-based; conditions: 1 μM in minimal medium, p<0.05
Text: NPC bearing a doxycycline inducible polycistronic construct containing SOX10, OLIG2 and NKX6.2^29 in a human safe harbor (passages 10 to 25) were singularized on day −3 by treatment with Accutase and plated on Matrigel-coated 12-well plates at a density of 100.000 cells per well in N2B27-medium containing equal parts of neurobasal (Invitrogen) and DMEM-F12 medium (Invitrogen) with 1:100 B27 supplement lacking vitamin A (Invitrogen), 1:200 N2 supplement (Invitrogen), 1% penicillin/streptomycin/glutamine (PSG), 3 μM CHIR99021 (Axon Medchem), 150 μM ascorbic acid and 0.5 μM SAG. The next day medium was changed to N2B27-medium containing 1 μg/ml doxycycline. On DO medium was changed to glial-induction medium (GIM) consisting of DMEM-F12 with 1:100 B27 supplement lacking vitamin A, 1:200 N2 supplement, 1% PSG, 1 μM SAG, 10 ng/mL NT3 (Peprotech), 10 ng/mL IGF-I (Peprotech), 200 μM AA (Sigma), 1:1000 Trace Elements B (Corning). For full medium conditions 10 ng/ml T3 was added. […] Cells were fixed on D21 and analyzed via immunocytochemistry. […]
Imaging and evaluation. […] Cell numbers were determined by using an ImageJ Macro to count the nuclei whereas MBP positive cells were subsequently counted manually in black and white images. […]

[2] = test system: primary murine spinal cord culture; assay: Myelinating cell cultures from primary murine spinal cord; type: cell-based, mouse; conditions: 1 μM
Experimental: Single cell suspensions are prepared from spinal cord of mouse embryos (E13) (adapted from Thomson, 2008) and 1.5×10^5 cells/well were plated into 96 well plates. Over time, these cultures mature and form axons, which later myelinate. Using spinal cord tissue facilitates the quantification of mature MBP+ oligodendrocytes and newly formed myelin by in-house high-content imaging system (Operetta High Content Imaging System, Perkin Elmer) with a 20× lens. From each well, 25 fields in a 5×5 matrix were scanned. Thirty-two “Front Runners” compounds were tested in replicates of five at 1 μM/DMSO, while T3, benzotropine and clemastine were used as positive controls, DMSO as negative/solvent control. Two experimental paradigms were applied: “Early treatment”: exposure to experimental agent from DIV7 to DIV14; “Late treatment”: exposure to experimental agent from DIV14-DIV21. On DIV21, cultures were fixed and stained (myelin: MBP, axons: NF200; nuclei: Hoechst). Imaging data were analysed using CellProfiler and in-house generated analysis pipeline.
Thirty-two “Front Runners” compounds were tested in replicates of five at 1 μM/DMSO, while T3, benztropine and clemastine were used as positive controls, DMSO as negative/solvent control. Two experimental paradigms were applied: “Early treatment”: exposure to experimental agent from DIV7 to DIV14; “Late treatment”: exposure to experimental agent from DIV14-DIV21. […] In “Late treatment” paradigm in myelin area evaluation were identified Vanoxerine, Roxadustat, Tamibarotene, Drinabant, Progesterone, Saracatinib. In quantification of myelinated axons were identified Vanoxerine, Drinabant, Roxadustat.

[3] = test system: iPSC-derived glutamatergic neurons; assay: ROS (tBuOOH)-mediated neuroprotective assay on hNeu; type: cell-based, human; conditions: summary for all three control lines
Experimental: Neuroprotective experiments were performed using iPSC-derived glutamatergic neurons from 3 healthy controls cultured for 30-40 DIV. Cells were pre-treated for 24 h with […] of compounds, vehicle (DMSO) or 5 nM Mito-Q (mitoquinone) served as a positive control. On the next day cells were incubated for 2 h with 100 µM of tert-butyl peroxide (tBuOOH, Sigma), then the medium was replaced and the viability readout by CCK8 viability assay kit (Dojindo) was performed on the following day. The cell viability was expressed as normalized Z score and compared to tBuOOH-treated cells with nonparametric Kruskal-Wallis test with Dunn's multiple comparisons correction.
32 “Front runners” and 7 compounds from short list were tested on iPSC-derived neurons from three control lines in ROS-mediated assay to evaluate a neuroprotective potential of selected compounds. Three independent experiments were performed for CTR4 and CTR8, FIG. 20 (A, C), while two independent experiments were performed for CTR7, FIG. 20 (B).

Compound: CN1CCN(CCOc2cc(OC3CCOCC3)c3c(Nc4c(Cl)ccc5c4OCO5)ncnc3c2)CC1 [Saracatinib]
- differentiation into MBP+ oligodendrocytes [1]: promote significantly (p<0.05) the differentiation into MBP+ oligodendrocytes
- myelin area ([2]; Early treatment DIV7 to DIV14): identified
- myelin area ([2]; Late treatment DIV14-DIV21): identified
- protection from tBuOOH insult [3]: potential neuroprotective effect from tBuOOH-mediated insult
